{"source": "patent US20240247224A1", "about": "“SYSTEM AND METHOD FOR RAPID SUSCEPTIBILITY TESTING” (priority 2023, published 2024)", "origin": "cited, not measured here", "test_system": "AR Isolate AR 0817", "settings": "FIG. 27; cited from earlier work", "note": "At least one compound was matched to its structure with a doubt left."}
{"smiles": "C=CC1=C(C(=O)O)N2C(=O)[C@@H](NC(=O)/C(=N\\OCC(=O)O)c3csc(N)n3)[C@H]2SC1", "note": "[Cefixime]", "values": [{"measurement": "expected MIC value", "value": 0.125, "unit": "µg/mL"}]}
